Source: the supplement of paper PMC4604168 (melanoma cell lines)
The other results are listed elsewhere or left out. Single values are uncertain, as repeats are few or missing.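 Cells were imaged in 1,536-well plates, and nuclei stained with an antibody against cleaved PARP were counted against all DNA-stained nuclei to give the apoptosis fraction. Screening doses were chosen to leave most cells alive, and resting and induced cleaved-PARP levels differ strongly between cell lines.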

tested on: UACC257; assay: cleaved PARP positive nuclei fraction relative to DMSO control; melanoma cells; higher = more apoptosis; details: library dose: low library concentration; 72 h

SMILES | cleaved PARP positive nuclei fraction
Nc1ncn([C@H]2C[C@H](O)[C@@H](CO)O2)c(=O)n1 [decitabine] + COc1ccc(-c2ccc3c(N4CCOCC4)nc(N4C[C@@H](C)O[C@@H](C)C4)nc3n2)cc1CO [KU0063794] (first compound 0.1 µM, partner dose 0.02 µM) | 67.6%
CS(=O)(=O)CCNCc1ccc(-c2ccc3ncnc(Nc4ccc(OCc5cccc(F)c5)c(Cl)c4)c3c2)o1 [lapatinib] + O=S(=O)(c1ccccc1)N(CC(F)(F)F)c1ccc(C(O)(C(F)(F)F)C(F)(F)F)cc1 [T0901317] (first compound 0.8 µM, partner dose 1.4 µM) | 119%
Nc1ccn([C@@H]2O[C@H](CO)[C@@H](O)C2(F)F)c(=O)n1 [gemcitabine] + CC1(C)NC(=O)N(c2ccc([N+](=O)[O-])c(C(F)(F)F)c2)C1=O [nilutamide] (first compound 0.0004 µM, partner dose 1 µM) | 83.8%
CCCS(=O)(=O)Nc1ccc(F)c(C(=O)c2c[nH]c3ncc(Cl)cc23)c1F + O=C1NC(=O)/C(=C/c2ccc(-c3ccc(F)cc3O)o2)S1 [AS252424] (first compound 0.08 µM, partner dose 1 µM) | 379%
CNC(=O)c1cc(Oc2ccc(NC(=O)Nc3ccc(Cl)c(C(F)(F)F)c3)cc2)ccn1 [sorafenib] + C[C@@H]1CCN(C(=O)CC#N)C[C@@H]1N(C)c1ncnc2[nH]ccc12 [CP690550] (first compound 0.4 µM, partner dose 1 µM) | 53.6%
Cc1cc(Nc2cc(N3CCN(C)CC3)nc(/C=C/c3ccccc3)n2)n[nH]1 + CN(C)S(=O)(=O)c1ccc2c(c1)/C(=C/c1cc3c([nH]1)CCCC3)C(=O)N2 [SU6656] (first compound 0.04 µM, partner dose 0.4 µM) | 99.7%
Nc1ncn([C@H]2C[C@H](O)[C@@H](CO)O2)c(=O)n1 [decitabine] + CCCCCCCCCCCC1=C(O)C(=O)C=C(O)C1=O [Embelin] (first compound 0.1 µM, partner dose 1.2 µM) | 52.2%
Nc1nc(F)nc2c1ncn2[C@@H]1O[C@H](CO)[C@@H](O)[C@@H]1O [fludarabine] + CCCCCCCCCCCC1=C(O)C(=O)C=C(O)C1=O [Embelin] (first compound 0.2 µM, partner dose 1.2 µM) | 447%
O=C(O)c1ccc2c(c1)nc(Nc1cccc(Cl)c1)c1ccncc12 + COc1ccc2c(c1)CCC1C2CCC2(C)C(NCCCCCCN3C(=O)C=CC3=O)CCC12 [U73122] (first compound 0.4 µM, partner dose 0.4 µM) | 49.2%
Nc1ccn([C@@H]2O[C@H](CO)[C@@H](O)C2(F)F)c(=O)n1 [gemcitabine] + CO[C@@H]1[C@H](N(C)C(=O)c2ccccc2)C[C@H]2O[C@]1(C)n1c3ccccc3c3c4c(c5c6ccccc6n2c5c31)C(=O)NC4 [Midostaurin] (first compound 0.0004 µM, partner dose 0.08 µM) | 48.9%
CN1CCN(c2ccc3nc(-c4c(N)c5c(F)cccc5[nH]c4=O)[nH]c3c2)CC1 [Dovitinib] + O=C(O)C(=O)Nc1sc2c(c1C(=O)O)CCNC2 [TCS401] (first compound 0.1 µM, partner dose 1.66667 µM) | 102%
Nc1ncn([C@H]2C[C@H](O)[C@@H](CO)O2)c(=O)n1 [decitabine] + COC(=O)c1sccc1S(=O)(=O)Nc1ccc(Nc2ccccc2)cc1OC [GSK0660] (first compound 0.1 µM, partner dose 1 µM) | 95.5%
Cc1cc(Nc2cc(N3CCN(C)CC3)nc(/C=C/c3ccccc3)n2)n[nH]1 + Cc1cc(N2CCOCC2)cc2[nH]c(-c3c(NC[C@@H](O)c4cccc(Cl)c4)cc[nH]c3=O)nc12 [BMS536924] (first compound 0.04 µM, partner dose 0.2 µM) | 56.7%
Cn1c(=O)n(-c2ccc(C(C)(C)C#N)cc2)c2c3cc(-c4cnc5ccccc5c4)ccc3ncc21 + NC(=O)Nc1cc(-c2cccc(F)c2)sc1C(=O)N[C@H]1CCCNC1 [AZD7762] (first compound 0.004 µM, partner dose 0.02 µM) | 211%
